Measurements taken from the supplement of paper PMC6078165.
± gives the standard deviation of the averaged measurements. The reference is the same well before dosing, and untreated signal decays as well.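 The cancer cells are triple-negative breast cancer lines of basal-like or mesenchymal-like type, grown without fibroblasts. A drop in red signal reflects loss of mitochondrial integrity, a stand-in for apoptotic death.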

Assays:
Assay in all cases: relative JC-1 red fluorescence (viability) vs pre-drug, monoculture (fraction); higher = more viable cancer cells
Settings in all cases: coculture fibroblast: none (monoculture)
[1] = system: BT20
Procedure: (§1)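 JC-1 labelled TNBC cells grown in monoculture (density kept equal with unlabelled cancer cells) in 384-well plates in FluoroBrite medium, treated with one of 42 anticancer drugs at 0.1, 1, 10 or 100 uM. JC-1 red fluorescence (mitochondrial integrity, surrogate of apoptotic death) was read by plate reader every 8 h for 72 h. Values are normalised to each well's pre-drug value, with background from alamethicin. The stock of one drug was tenfold lower, so its dose labels may be too high. Monoculture values are repeated alongside each fibroblast plate and are averaged here.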

[2] = system: Hs578T
Procedure: as §1

[3] = system: MDAMB468
Procedure: as §1

[4] = system: MDAMB231
Procedure: as §1

C#Cc1cccc(Nc2ncnc3cc(OCCOC)c(OCCOC)cc23)c1 [Erlotinib]
relative JC-1 red fluorescence
Settings	8 h	16 h	24 h	32 h	40 h	48 h	56 h	64 h	72 h
[1], 0.1 µM	0.951 ± 0.014	0.8733 ± 0.0066	0.769 ± 0.0087	0.6927 ± 0.0011	0.644 ± 0.005	0.605 ± 0.0061	0.582 ± 0.016	0.551 ± 0.016	0.531 ± 0.013
[1], 1 µM	0.931 ± 0.012	0.861 ± 0.033	0.861 ± 0.033	0.802 ± 0.019	0.7901 ± 0.0051	0.7817 ± 0.00072	0.769 ± 0.022	0.772 ± 0.035	0.766 ± 0.041
[1], 10 µM	0.961 ± 0.0053	0.906 ± 0.021	0.817 ± 0.013	0.76 ± 0.009	0.727 ± 0.02	0.707 ± 0.016	0.689 ± 0.013	0.665 ± 0.016	0.644 ± 0.023
[1], 100 µM	0.955 ± 0.019	0.944 ± 0.052	0.847 ± 0.06	0.924 ± 0.076	0.909 ± 0.073	0.914 ± 0.076	0.917 ± 0.074	0.817 ± 0.04	0.842 ± 0.02
[2], 0.1 µM	0.852 ± 0.026	0.76 ± 0.019	0.716 ± 0.032	0.649 ± 0.036	0.598 ± 0.057	0.567 ± 0.066	0.549 ± 0.075	0.545 ± 0.072	0.53 ± 0.077
[2], 1 µM	0.8568 ± 0.0067	0.748 ± 0.021	0.734 ± 0.016	0.676 ± 0.015	0.653 ± 0.013	0.638 ± 0.0072	0.62 ± 0.0065	0.624 ± 0.0065	0.62068 ± 9.6e-05
[2], 10 µM	0.912 ± 0.012	0.8907 ± 0.0024	0.801 ± 0.011	0.8136 ± 0.0039	0.783 ± 0.0093	0.754 ± 0.012	0.727 ± 0.014	0.7001 ± 0.0026	0.6762 ± 0.0026
[2], 100 µM	0.896 ± 0.019	0.796 ± 0.046	0.898 ± 0.034	0.89 ± 0.059	0.864 ± 0.057	0.859 ± 0.052	0.851 ± 0.044	0.852 ± 0.025	0.844 ± 0.021
[3], 0.1 µM	0.9104 ± 0.0058	0.862 ± 0.016	0.8005 ± 0.0067	0.723 ± 0.013	0.6724 ± 0.0029	0.657 ± 0.00092	0.628 ± 0.011	0.6059 ± 0.0054	0.5879 ± 0.00061
[3], 1 µM	0.8946 ± 0.0053	0.811 ± 0.014	0.834 ± 0.031	0.791 ± 0.048	0.781 ± 0.055	0.775 ± 0.058	0.739 ± 0.058	0.726 ± 0.068	0.717 ± 0.076
[3], 10 µM	0.927 ± 0.031	0.8985 ± 0.008	0.851 ± 0.0086	0.806 ± 0.008	0.796 ± 0.013	0.7621 ± 0.0032	0.7418 ± 0.0072	0.735 ± 0.013	0.718 ± 0.018
[3], 100 µM	0.907 ± 0.043	0.873 ± 0.05	0.891 ± 0.064	0.822 ± 0.043	0.808 ± 0.037	0.827 ± 0.053	0.806 ± 0.068	0.81 ± 0.078	0.804 ± 0.092
[4], 0.1 µM	0.75 ± 0.038	0.741 ± 0.025	0.668 ± 0.056	0.683 ± 0.07	0.626 ± 0.064	0.619 ± 0.071	0.574 ± 0.068	0.592 ± 0.07	0.575 ± 0.075
[4], 1 µM	0.704 ± 0.0096	0.6921 ± 0.0012	0.719 ± 0.011	0.66919 ± 0.00056	0.64418 ± 0.00027	0.6444 ± 0.0011	0.618 ± 0.0099	0.6455 ± 0.0012	0.6413 ± 0.00065
[4], 10 µM	0.782 ± 0.014	0.807 ± 0.021	0.731 ± 0.028	0.807 ± 0.028	0.785 ± 0.03	0.78 ± 0.029	0.763 ± 0.03	0.772 ± 0.023	0.763 ± 0.017
[4], 100 µM	0.801 ± 0.035	0.836 ± 0.045	0.816 ± 0.027	0.862 ± 0.049	0.847 ± 0.047	0.846 ± 0.045	0.847 ± 0.051	0.862 ± 0.043	0.866 ± 0.05

CCCCCOC(=O)Nc1nc(=O)n([C@@H]2O[C@H](C)[C@@H](O)[C@H]2O)cc1F [Capecitabine]
relative JC-1 red fluorescence
Settings	8 h	16 h	24 h	32 h	40 h	48 h	56 h	64 h	72 h
[1], 0.1 µM	0.9298 ± 0.0022	0.854 ± 0.026	0.757 ± 0.037	0.677 ± 0.043	0.628 ± 0.042	0.587 ± 0.047	0.545 ± 0.05	0.516 ± 0.058	0.497 ± 0.058
[1], 1 µM	0.979 ± 0.0022	0.9352 ± 0.0071	0.878 ± 0.029	0.803 ± 0.011	0.763 ± 0.013	0.745 ± 0.022	0.716 ± 0.026	0.712 ± 0.011	0.71521 ± 0.0006
[1], 10 µM	0.947 ± 0.0096	0.8826 ± 0.0082	0.759 ± 0.02	0.689 ± 0.018	0.634 ± 0.021	0.593 ± 0.025	0.552 ± 0.018	0.521 ± 0.021	0.5 ± 0.018
[1], 100 µM	0.9383 ± 0.0039	0.887 ± 0.0097	0.821 ± 0.03	0.763 ± 0.028	0.722 ± 0.048	0.711 ± 0.052	0.68 ± 0.047	0.66 ± 0.051	0.646 ± 0.061
[2], 0.1 µM	0.824 ± 0.012	0.7223 ± 0.0036	0.649 ± 0.041	0.576 ± 0.032	0.529 ± 0.033	0.498 ± 0.031	0.474 ± 0.031	0.467 ± 0.037	0.452 ± 0.039
[2], 1 µM	0.8525 ± 0.0029	0.7501 ± 0.0019	0.6367 ± 0.0037	0.5626 ± 0.003	0.507 ± 0.0057	0.477 ± 0.018	0.448 ± 0.021	0.441 ± 0.023	0.434 ± 0.031
[2], 10 µM	0.828 ± 0.024	0.731 ± 0.043	0.647 ± 0.034	0.579 ± 0.032	0.527 ± 0.033	0.494 ± 0.033	0.464 ± 0.035	0.453 ± 0.038	0.432 ± 0.037
[2], 100 µM	0.866 ± 0.041	0.787 ± 0.053	0.753 ± 0.064	0.691 ± 0.061	0.663 ± 0.064	0.65 ± 0.06	0.64 ± 0.058	0.649 ± 0.056	0.636 ± 0.058
[3], 0.1 µM	0.901 ± 0.011	0.83 ± 0.022	0.76 ± 0.023	0.6835 ± 0.006	0.641 ± 0.0076	0.6324 ± 0.0062	0.603 ± 0.013	0.582 ± 0.016	0.574 ± 0.017
[3], 1 µM	0.917 ± 0.015	0.8791 ± 0.0013	0.8356 ± 0.0075	0.7386 ± 0.0045	0.7 ± 0.029	0.693 ± 0.029	0.676 ± 0.038	0.66 ± 0.037	0.653 ± 0.032
[3], 10 µM	0.9139 ± 0.0027	0.8709 ± 0.0079	0.788 ± 0.019	0.7263 ± 0.0065	0.6882 ± 0.0021	0.6786 ± 0.0029	0.653 ± 0.018	0.631 ± 0.025	0.621 ± 0.029
[3], 100 µM	0.9243 ± 0.0025	0.857 ± 0.037	0.792 ± 0.037	0.748 ± 0.033	0.706 ± 0.024	0.662 ± 0.025	0.636 ± 0.025	0.61 ± 0.029	0.594 ± 0.026
[4], 0.1 µM	0.837 ± 0.057	0.786 ± 0.095	0.758 ± 0.047	0.799 ± 0.15	0.793 ± 0.18	0.688 ± 0.045	0.808 ± 0.17	0.748 ± 0.075	0.735 ± 0.062
[4], 1 µM	0.752 ± 0.015	0.719 ± 0.041	0.681 ± 0.026	0.611 ± 0.025	0.567 ± 0.044	0.56 ± 0.037	0.536 ± 0.028	0.549 ± 0.035	0.549 ± 0.035
[4], 10 µM	0.769 ± 0.011	0.7348 ± 0.0051	0.664 ± 0.015	0.605 ± 0.021	0.568 ± 0.013	0.55 ± 0.024	0.525 ± 0.0095	0.54 ± 0.016	0.537 ± 0.0096
[4], 100 µM	0.771 ± 0.024	0.764 ± 0.019	0.674 ± 0.031	0.6551 ± 0.0043	0.626 ± 0.015	0.598 ± 0.024	0.57 ± 0.034	0.585 ± 0.053	0.571 ± 0.048
